The chains behind the UniProt entries cited, without tags or fusion partners. Residues count along the entry.
UniProt P14625, residues 22-803: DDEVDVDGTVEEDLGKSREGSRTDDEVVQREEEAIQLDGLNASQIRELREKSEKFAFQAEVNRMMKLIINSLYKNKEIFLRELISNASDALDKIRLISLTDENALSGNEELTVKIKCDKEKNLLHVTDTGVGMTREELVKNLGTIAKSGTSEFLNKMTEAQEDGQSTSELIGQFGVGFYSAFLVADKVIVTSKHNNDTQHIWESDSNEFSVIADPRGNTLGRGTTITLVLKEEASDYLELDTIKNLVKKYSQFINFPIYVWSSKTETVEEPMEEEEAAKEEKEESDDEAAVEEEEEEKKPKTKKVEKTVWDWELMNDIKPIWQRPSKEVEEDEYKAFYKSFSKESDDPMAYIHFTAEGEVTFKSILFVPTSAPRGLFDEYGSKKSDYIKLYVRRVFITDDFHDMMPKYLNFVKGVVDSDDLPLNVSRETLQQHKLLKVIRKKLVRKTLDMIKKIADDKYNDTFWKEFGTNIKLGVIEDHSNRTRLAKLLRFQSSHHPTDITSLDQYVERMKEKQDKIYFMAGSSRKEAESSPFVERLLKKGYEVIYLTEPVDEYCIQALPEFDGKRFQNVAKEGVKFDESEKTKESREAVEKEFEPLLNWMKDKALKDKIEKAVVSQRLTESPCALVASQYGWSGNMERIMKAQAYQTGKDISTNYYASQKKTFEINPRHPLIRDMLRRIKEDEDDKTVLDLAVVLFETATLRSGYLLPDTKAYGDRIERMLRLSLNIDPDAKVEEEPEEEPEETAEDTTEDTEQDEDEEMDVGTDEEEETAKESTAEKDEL

In PMC11629888:

Biological target: T1, Flag-CCDC134 (internal Flag tag), stably reconstituted in CCDC134 knockout CAL-1 cells (human) (UniProt Q9H6E4)
T1 sequence: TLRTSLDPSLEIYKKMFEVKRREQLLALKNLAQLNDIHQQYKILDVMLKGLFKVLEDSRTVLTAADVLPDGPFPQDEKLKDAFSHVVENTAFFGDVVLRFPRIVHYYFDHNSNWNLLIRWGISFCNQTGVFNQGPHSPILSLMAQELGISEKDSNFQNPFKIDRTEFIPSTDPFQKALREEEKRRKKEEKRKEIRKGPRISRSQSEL
Test: affinity purification with mass spectrometry; anti-Flag M2 immunoprecipitation of Flag-CCDC134 from 5 x 10^7 stably reconstituted sgCCDC134 CAL-1 cells against control CAL-1 (sgRen, empty vector); preclearing with Sepharose 6B; four replicates

binding: binds
Substance: endogenous Gp96 in CAL-1 cells (from UniProt P14625 22-803)

Results are given in words; binding and its absence hold for the method and conditions named. Binding seen in cells or lysates may run through a third protein. Here binding means that the protein was enriched with, or labelled near, the bait; the list need not be complete. Where a sequence is shown, tags or fusion partners need not be part of it.
